PubChem BioAssay AID1508597 – Cure First, 2020
Here is an unselected part of about 2,100 deposited reagents. 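Calls flag viability under 80% in either arm, not effects specific to rucaparib; the reference for percent is not stated.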 No sequences are given here. Not stated in the record: the 100% reference.

- Purpose: 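Genes whose silencing sensitises or protects ovarian cancer cells against rucaparib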 (primary screen)
- Cell system: human ovarian carcinoma lines grown from tumours: OCI-P5x (papillary serous) and OCI-C5x (clear cell)
- Reagent: siRNA pool against human genes, 1.25 pmol siRNA per well
- Time to read-out: 72 h or 96 h, depending on the cell culture
- Challenge: rucaparib 20 µM (about IC30) or vehicle, present until read-out
- Detection: 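ATP luminescence measured at 72 or 96 h according to the culture, then normalised and expressed as percent viability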
- Reading the numbers: viability, normalised: higher = more viable cells remaining
- Rule for the call: 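a well counts as a hit if its normalised viability is under 80 percent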
- Meaning of the calls: active = viability under 80%; inactive = viability 80% or more

target gene | rucaparib or vehicle | cell line | technical replicate | viability, normalised (%) | outcome
RNF2 (ring finger protein 2) | Rucaparib | OCI-C5x (clear cell) | 1 | 42.1 | active
RNF2 (ring finger protein 2) | Rucaparib | OCI-C5x (clear cell) | 2 | 36.2 | active
RNF2 (ring finger protein 2) | Rucaparib | OCI-C5x (clear cell) | 3 | 38.7 | active
RNF2 (ring finger protein 2) | Rucaparib | OCI-P5x (serous) | 1 | 53.5 | active
RNF2 (ring finger protein 2) | Rucaparib | OCI-P5x (serous) | 2 | 54.3 | active
RNF2 (ring finger protein 2) | Rucaparib | OCI-P5x (serous) | 3 | 59.1 | active
RNF2 (ring finger protein 2) | Vehicle | OCI-C5x (clear cell) | 1 | 47.5 | active
RNF2 (ring finger protein 2) | Vehicle | OCI-C5x (clear cell) | 2 | 36.4 | active
RNF2 (ring finger protein 2) | Vehicle | OCI-C5x (clear cell) | 3 | 56.9 | active
RNF2 (ring finger protein 2) | Vehicle | OCI-P5x (serous) | 1 | 68.1 | active
RNF2 (ring finger protein 2) | Vehicle | OCI-P5x (serous) | 2 | 74.2 | active
RNF2 (ring finger protein 2) | Vehicle | OCI-P5x (serous) | 3 | 108 | inactive

3 entries already listed, arranged by “viability, normalised (%)”, low to high.
target gene | rucaparib or vehicle | cell line | technical replicate | viability, normalised (%) | outcome
RNF2 (ring finger protein 2) | Vehicle | OCI-C5x (clear cell) | 3 | 56.9 | active
RNF2 (ring finger protein 2) | Vehicle | OCI-P5x (serous) | 1 | 68.1 | active
RNF2 (ring finger protein 2) | Vehicle | OCI-P5x (serous) | 2 | 74.2 | active

The results go on:
target gene | rucaparib or vehicle | cell line | technical replicate | viability, normalised (%) | outcome
PCDHB2 (protocadherin beta 2) | Rucaparib | OCI-C5x (clear cell) | 1 | 52.4 | active
PCDHB2 (protocadherin beta 2) | Rucaparib | OCI-C5x (clear cell) | 2 | 59.9 | active
PCDHB2 (protocadherin beta 2) | Rucaparib | OCI-C5x (clear cell) | 3 | 59.2 | active
PCDHB2 (protocadherin beta 2) | Rucaparib | OCI-P5x (serous) | 1 | 41.7 | active
PCDHB2 (protocadherin beta 2) | Rucaparib | OCI-P5x (serous) | 2 | 43.7 | active
PCDHB2 (protocadherin beta 2) | Rucaparib | OCI-P5x (serous) | 3 | 47.6 | active
PCDHB2 (protocadherin beta 2) | Vehicle | OCI-C5x (clear cell) | 1 | 52.6 | active
PCDHB2 (protocadherin beta 2) | Vehicle | OCI-C5x (clear cell) | 2 | 33.9 | active
PCDHB2 (protocadherin beta 2) | Vehicle | OCI-C5x (clear cell) | 3 | 43.7 | active
PCDHB2 (protocadherin beta 2) | Vehicle | OCI-P5x (serous) | 1 | 56 | active
PCDHB2 (protocadherin beta 2) | Vehicle | OCI-P5x (serous) | 2 | 50.2 | active
PCDHB2 (protocadherin beta 2) | Vehicle | OCI-P5x (serous) | 3 | 64.6 | active
